# Screen size: about 300,000 compounds; about 3,700 (1.2%) were called active. Inconclusive results, whose numbers are uncertain, are shown with a selection of clear calls. Calls follow the shape of the full dose curve; tested in HEK293 cells. Where the call is inconclusive, the potency comes from a doubtful curve fit.
# Assay: qHTS for Inhibitors of binding or entry into cells for Lassa Virus; also: nearly all actives have a fitted effect of over 50% in size
# Details: Lassa virus pseudotype entry inhibition, cell reporter; activity change, negative = inhibition: at 37.9 µM (top of the series) unless noted
# % is scaled to controls: 0 for no effect and ±100 for the full control effect; potency is read from the fitted curve at half-maximal effect.
Compound,"activity change, negative = inhibition",Potency
CCCn1c(=N)n(CC(O)c2ccco2)c2ccccc21 (centres undefined),inactive: -0.943%,
CC(=O)Nc1ccc(C(=O)CN2C(=O)NC3(CCCCCC3)C2=O)c(F)c1,inactive: -6.3%,
CCOC(=O)CSc1c(-c2ccccc2)c2cc(Cl)ccc2[nH]c1=O,inactive: -11.4%,
O=C1C2C3C=CC(C3)C2C(=O)N1CCN1CCN(S(=O)(=O)/C=C/c2ccccc2)CC1 (centres undefined),inactive: -10.2%,
COc1ccc(Br)cc1CNC(=O)CN1C(=O)CSc2ccc(S(=O)(=O)N3CCOCC3)cc21,,"inconclusive: 35.5 µM [inhibitor, single point]"
Cc1cccc(C(=O)Nc2cccc(C(=O)OCc3cc(=O)n4ccsc4n3)c2)c1,inactive: 16% [at 46.1 µM],
CCOC(=O)c1ccc2ncc(C(=O)OCC)c(Nc3ccc(C)c(Br)c3)c2c1,,"inconclusive: 3.16 µM [inhibitor, partial curve, poor fit]"
Cc1ccc(-c2[nH]ncc2/C=N/n2c(COc3ccccc3C)nc3ccccc3c2=O)cc1,,"inconclusive: 6.51 µM [inhibitor, single point]"
N#Cc1cc2c(nc1SCC(=O)Nc1ccc(C(F)(F)F)cc1)C1CCN2CC1,inactive: -2.46% [at 46.1 µM],
CCC(c1ccc(O)c(O)c1)C(CC)c1ccc(O)c(O)c1 (centres undefined),,"inconclusive: 35.5 µM [inhibitor, partial curve, poor fit]"
CC(C)c1ccc(C2C3=C(COC3=O)Nc3cc4c(cc32)OCO4)cc1 (centres undefined),,"inconclusive: 1.58 µM [inhibitor, partial curve, poor fit]"
c1ccc(C(=NNc2nc3ccccc3s2)c2ccccn2)cc1,,active: 12.6 µM
CCOc1cc(/C=N/NC(=O)CSc2cccc3cccnc23)ccc1O,,"inconclusive: 7.08 µM [inhibitor, partial curve, poor fit]"
COc1ccc(C(=O)Nc2ccc3[nH]ncc3c2)cc1OC,inactive: 13.4%,
O=C(N/N=C/c1ccc(O)cc1)Nc1cccc2nsnc12,,"inconclusive: 11.2 µM [inhibitor, partial curve, poor fit]"
CCOC(=O)C(NC(=O)c1ccccc1)(Nc1cccc(C)n1)C(F)(F)F (centres undefined),inactive: 0.168%,
Cc1ccc(-n2nc(C)c3nc(CCC(=O)Nc4ccc(F)cc4)c(=O)n(C)c32)cc1,,"inconclusive: 6.31 µM [inhibitor, single point]"
Clc1cccc(N=C2NN=C(c3ccc4c(c3)OCCO4)CS2)c1,,"inconclusive: 29.1 µM [inhibitor, single point]"
COC(=O)C1=C[C@H]([C@@H](C)[C@H](OC)c2ccccc2Br)[C@H]2c3ccccc3O[C@@H]12,,"inconclusive: 1.68 µM [inhibitor, partial curve, poor fit]"
COc1cccc(CN2CCC(C(=O)N3CCN(Cc4ccc5c(c4)OCO5)CC3)CC2)c1,,"inconclusive: 11.2 µM [inhibitor, single point]"
Cc1cc(C)c2sc(N(CCN(C)C)C(=O)CCS(=O)(=O)c3ccccc3)nc2c1,,"inconclusive: 5.01 µM [inhibitor, partial curve, poor fit]"
O=C(CCl)N=c1sccn1Cc1ccccc1Cl,,"inconclusive: 9.2 µM [inhibitor, partial curve]"

# Single entries from the entries so far.
# Entry for CC(=O)Nc1ccc(C(=O)CN2C(=O)NC3(CCCCCC3)C2=O)c(F)c1 under activity change, negative = inhibition: inactive: -6.3%
# Entry for CCC(c1ccc(O)c(O)c1)C(CC)c1ccc(O)c(O)c1 (centres undefined) under Potency: inconclusive: 35.5 µM [inhibitor, partial curve, poor fit]
# Entry for CCOC(=O)c1ccc2ncc(C(=O)OCC)c(Nc3ccc(C)c(Br)c3)c2c1 under Potency: inconclusive: 3.16 µM [inhibitor, partial curve, poor fit]

# Next compounds follow.

Compound,"activity change, negative = inhibition",Potency
C=CC[n+]1c(-c2ccc(OC)c(OC)c2)csc1NNC(=O)Nc1ccccc1,,active: 10.3 µM
O=C(NCC1CCCO1)c1c(O)nc2sccn2c1=O (centres undefined),inactive: 8.39%,
COc1ccc(NC(=O)c2ccco2)cc1NC(=O)COc1ccccc1Cl,,"inconclusive: 1.58 µM [activator, partial curve, poor fit]"
COc1cccc(N(CC(=O)NCc2ccccc2)C(=O)CCC(=O)Nc2nccs2)c1,,"inconclusive: 14.1 µM [inhibitor, partial curve, poor fit]"
O=C(C1CCCN(S(=O)(=O)c2cccnc2)C1)N1CCN(c2ccccn2)CC1 (centres undefined),,"inconclusive: 3.26 µM [inhibitor, partial curve, poor fit]"
COC(=O)c1ccccc1S(=O)(=O)NNC(=O)C1COc2ccccc2O1 (centres undefined),inactive: 22.5%,
Cc1cccc(NC(=O)CSc2nc3c([nH]c4ccccc43)c(=O)n2-c2ccc(F)cc2)c1C,,"inconclusive: 6.31 µM [inhibitor, single point]"
O=C(NC1CCCCCC1)C1CCC(=O)N(Cc2ccccc2F)C1 (centres undefined),inactive: -5.86%,
CC(/C=N/NC(=O)CSc1ccccn1)=C\c1ccc(C(C)C)cc1,,"inconclusive: 35.5 µM [inhibitor, single point]"
COC(=O)/C(C#N)=C1/C=Cc2ccccc2N1,inactive: -0.864% [at 46.1 µM],
CC1CCN(Cc2c(C(=O)N/N=C/c3cc(Cl)ccc3O)nnn2-c2nonc2N)CC1,,"inconclusive: 17.8 µM [inhibitor, single point]"
COc1ccccc1NC(=O)N1CCCC1C(=O)NC12CC3CC(CC(C3)C1)C2 (centres undefined),,"inconclusive: 25.9 µM [inhibitor, single point]"
O=C(Cc1cccs1)N1CCCC(c2nc(-c3ccc(S(=O)(=O)N4CCCC4)cc3)no2)C1 (centres undefined),,"inconclusive: 22.4 µM [inhibitor, single point]"
CCCn1ccc2c(OCC(=O)Nc3ccc(F)cc3F)cccc2c1=O,,"inconclusive: 7.08 µM [inhibitor, partial curve, poor fit]"
Cc1cccc(OCC(=O)Nc2ccc3c(c2)N(C)C(=O)c2ccccc2S3)c1,,"inconclusive: 11.2 µM [inhibitor, partial curve, poor fit]"
COc1cccc(C(=O)NNC(=O)C(=O)Nc2cccc(Cl)c2C)c1,inactive: 16.6% [at 46.1 µM],
COc1ccc(C(=O)/C=C/c2cccs2)c(OC(=O)N2CCOCC2)c1,,"inconclusive: 25.9 µM [inhibitor, single point]"
O=Cc1ccc(-c2cccs2)s1,,active: 10 µM
Cc1cc(C)c(OCC(=O)Nc2nnn(C)n2)c(Br)c1,inactive: -5.96%,
Cc1cc(Cl)cc(Cl)c1OCCOc1cccc2cccnc12,inactive: -0.333%,
CCn1c(SCC(=O)N(C)CC(=O)Nc2ccc(OC)cc2)nnc1-c1ccco1,,"inconclusive: 1.26 µM [inhibitor, single point]"
CCOC(=O)c1cc(C)sc1NC(=O)CN1CCN(C(=O)c2ccco2)CC1,,"inconclusive: 15.8 µM [inhibitor, single point]"

# Reference: PubChem BioAssay AID540256 (National Center for Advancing Translational Sciences (NCATS), 2011)
